Laboratory results published in article PMC2944878.
Where two headings read alike, the source gives them in different places. No constants are given. Whether binding was seen depends on the method and setting. Some entries that bind do so weakly or less than the wild type. For some of these results: Sequences can lack the tags named with a protein. Values belong to the molecule of their own block, whether it stands above or below them.

Amino acid sequences for entries named in this document (tags omitted).
UniProt Q39128: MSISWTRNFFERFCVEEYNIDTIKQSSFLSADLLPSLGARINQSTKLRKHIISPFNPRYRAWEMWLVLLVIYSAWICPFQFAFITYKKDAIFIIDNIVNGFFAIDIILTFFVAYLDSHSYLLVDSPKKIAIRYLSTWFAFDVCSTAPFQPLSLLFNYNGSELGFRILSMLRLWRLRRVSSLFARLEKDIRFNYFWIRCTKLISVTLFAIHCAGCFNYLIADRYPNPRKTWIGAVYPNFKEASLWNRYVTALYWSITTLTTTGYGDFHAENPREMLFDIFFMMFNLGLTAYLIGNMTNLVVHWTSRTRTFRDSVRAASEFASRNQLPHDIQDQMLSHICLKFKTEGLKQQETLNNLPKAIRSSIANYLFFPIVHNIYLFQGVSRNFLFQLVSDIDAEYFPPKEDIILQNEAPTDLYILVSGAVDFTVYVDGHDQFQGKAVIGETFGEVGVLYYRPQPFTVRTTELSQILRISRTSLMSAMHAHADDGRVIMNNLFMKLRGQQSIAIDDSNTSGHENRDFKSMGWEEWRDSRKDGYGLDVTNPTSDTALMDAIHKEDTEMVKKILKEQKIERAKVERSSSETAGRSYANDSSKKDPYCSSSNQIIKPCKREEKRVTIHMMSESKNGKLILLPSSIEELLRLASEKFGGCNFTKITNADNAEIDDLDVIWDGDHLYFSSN

What was measured:
Test in all cases: two-hybrid; mating-based split-ubiquitin system (mbSUS) in diploid S. cerevisiae: CubPLV bait and NubG prey; growth on SC medium lacking adenine and histidine and β-galactosidase activity; bait repressed by 75 µM methionine as control
[1] = target: T1, full-length HMT-1 as split-ubiquitin fusion (HMT-1-CubPLV bait; HMT-1-NubG prey) (C. elegans) (UniProt G5EFD4)
T1 sequence: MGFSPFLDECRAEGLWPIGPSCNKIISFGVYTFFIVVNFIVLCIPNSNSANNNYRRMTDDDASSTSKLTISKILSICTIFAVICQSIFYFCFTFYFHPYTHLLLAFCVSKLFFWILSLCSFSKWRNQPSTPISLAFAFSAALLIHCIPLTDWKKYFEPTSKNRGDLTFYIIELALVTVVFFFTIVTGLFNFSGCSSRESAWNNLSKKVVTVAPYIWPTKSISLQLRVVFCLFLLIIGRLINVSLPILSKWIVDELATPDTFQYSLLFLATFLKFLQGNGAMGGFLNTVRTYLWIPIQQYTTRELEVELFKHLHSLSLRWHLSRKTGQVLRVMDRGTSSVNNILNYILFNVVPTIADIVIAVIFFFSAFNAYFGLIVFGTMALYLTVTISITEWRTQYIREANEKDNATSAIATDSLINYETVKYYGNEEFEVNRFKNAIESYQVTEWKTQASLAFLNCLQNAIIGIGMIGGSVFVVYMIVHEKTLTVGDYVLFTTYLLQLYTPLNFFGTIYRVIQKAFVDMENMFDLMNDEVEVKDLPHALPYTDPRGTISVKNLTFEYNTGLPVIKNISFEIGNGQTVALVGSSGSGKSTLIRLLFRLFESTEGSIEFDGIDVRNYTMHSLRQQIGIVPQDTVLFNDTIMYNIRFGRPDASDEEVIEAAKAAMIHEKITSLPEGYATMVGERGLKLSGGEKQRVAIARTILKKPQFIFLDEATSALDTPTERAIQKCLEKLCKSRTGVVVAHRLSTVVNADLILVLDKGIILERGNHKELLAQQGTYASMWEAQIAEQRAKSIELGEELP

[2] = target: potassium channel KAT1 from Arabidopsis thaliana, as split-ubiquitin fusion (KAT1-CubPLV bait; KAT1-NubG prey) (Arabidopsis thaliana) (UniProt Q39128)
[3] = target: T1, full-length HMT-1 as split-ubiquitin fusion (HMT-1-CubPLV bait; HMT-1-NubG prey) (C. elegans); remark: listed apart in the source
[4] = target: potassium channel KAT1 from Arabidopsis thaliana, as split-ubiquitin fusion (KAT1-CubPLV bait; KAT1-NubG prey) (Arabidopsis thaliana) (UniProt Q39128); remark: listed apart in the source

binding [1]: no binding
binding [2]: binds
Molecule: potassium channel KAT1 from Arabidopsis thaliana, as split-ubiquitin fusion (KAT1-CubPLV bait; KAT1-NubG prey) (from UniProt Q39128 1-677)

binding [3]: binds
binding [4]: no binding
B1: full-length HMT-1 as split-ubiquitin fusion (HMT-1-CubPLV bait; HMT-1-NubG prey) (protein, UniProt G5EFD4 1-801)
chain: T1 sequence
